Data reported in the supplement of paper PMC10849652.
The list shows a part of the results. Residues, ends and D or L forms follow the SMILES beside them. *: point of attachment. Cbz = O=C(OCc1ccccc1)*

The chains behind the UniProt entries cited, without tags or fusion partners. Where a name states a change or a piece, a line headed by the entry shows the natural chain unless it says otherwise.
UniProt Q99942: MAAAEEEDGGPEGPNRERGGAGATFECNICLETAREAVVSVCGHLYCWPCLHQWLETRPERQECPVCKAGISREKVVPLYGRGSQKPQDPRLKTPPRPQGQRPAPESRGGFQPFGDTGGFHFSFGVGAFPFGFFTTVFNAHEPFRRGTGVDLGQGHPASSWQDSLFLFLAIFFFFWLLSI
UniProt Q969K3: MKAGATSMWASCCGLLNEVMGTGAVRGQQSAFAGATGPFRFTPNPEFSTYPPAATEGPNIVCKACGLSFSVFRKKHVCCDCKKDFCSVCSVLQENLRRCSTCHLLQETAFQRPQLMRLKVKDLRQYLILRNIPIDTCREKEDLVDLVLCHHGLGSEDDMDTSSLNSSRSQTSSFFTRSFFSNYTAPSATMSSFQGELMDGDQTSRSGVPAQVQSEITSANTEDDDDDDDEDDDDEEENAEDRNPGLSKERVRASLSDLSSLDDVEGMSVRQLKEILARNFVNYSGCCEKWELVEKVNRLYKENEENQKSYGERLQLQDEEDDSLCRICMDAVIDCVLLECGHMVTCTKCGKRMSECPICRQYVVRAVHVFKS
UniProt P04843: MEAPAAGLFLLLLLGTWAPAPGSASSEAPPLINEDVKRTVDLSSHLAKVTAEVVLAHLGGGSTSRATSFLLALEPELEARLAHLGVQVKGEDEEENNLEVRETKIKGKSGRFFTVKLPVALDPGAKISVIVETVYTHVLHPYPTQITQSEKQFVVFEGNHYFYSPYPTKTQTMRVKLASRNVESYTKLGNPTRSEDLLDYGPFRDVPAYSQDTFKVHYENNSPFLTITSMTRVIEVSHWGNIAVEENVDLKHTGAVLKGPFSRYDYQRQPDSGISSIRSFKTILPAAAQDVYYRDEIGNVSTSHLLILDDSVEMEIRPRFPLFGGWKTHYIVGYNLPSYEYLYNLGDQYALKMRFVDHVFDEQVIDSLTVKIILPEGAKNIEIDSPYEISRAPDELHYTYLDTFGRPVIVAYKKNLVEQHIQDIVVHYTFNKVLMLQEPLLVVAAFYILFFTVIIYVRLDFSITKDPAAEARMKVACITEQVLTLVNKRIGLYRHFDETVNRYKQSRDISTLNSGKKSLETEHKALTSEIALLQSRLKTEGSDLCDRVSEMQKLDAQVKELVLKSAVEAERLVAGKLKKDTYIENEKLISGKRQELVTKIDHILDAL
UniProt Q86WX3: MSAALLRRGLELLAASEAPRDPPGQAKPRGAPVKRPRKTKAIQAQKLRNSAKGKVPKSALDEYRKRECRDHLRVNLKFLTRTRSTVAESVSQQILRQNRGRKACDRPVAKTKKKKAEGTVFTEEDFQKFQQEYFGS
UniProt Q9H633: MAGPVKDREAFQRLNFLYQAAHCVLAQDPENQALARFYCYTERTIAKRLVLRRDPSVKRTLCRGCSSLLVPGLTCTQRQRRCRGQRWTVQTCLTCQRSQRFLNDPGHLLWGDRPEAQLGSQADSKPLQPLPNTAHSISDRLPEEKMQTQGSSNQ

Experiments:
Assay in all cases: log2 fold change, soluble protein after heating vs DMSO (PISA); higher = thermal stabilisation; K562 cells, 10 uM, 30 min; active = over 0.2 and 3.5 SD of the protein, either way, in both replicates (recomputed)
erlotinib = compound: C#Cc1cccc(Nc2ncnc3cc(OCCOC)c(OCCOC)cc23)c1 [erlotinib]
How it was run: (§1)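 K562 cells at 2×10^6 cells/mL were exposed to 10 μM compound for 30 min, then aliquots were heated for 3 min across 48°C-58°C, pooled, and extracted in PBS containing 0.5% NP-40 at 4°C. The supernatant after 21,000xg for 90 min was taken as soluble protein and measured by TMTpro 16plex LC-MS/MS with channel sums equalised. Thermal stability is reported relative to control samples, with values from duplicates. Fold changes are given on a log2 scale.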

[1] = compound: C/C(=N\NC(=O)C1=CC(=CC=C1)S(=O)(=O)N2CCOCC2)/C3=C(C=CC(=C3)Cl)O
How it was run: as §1

[2] = compound: C1=CC(=C(C=C1Cl)C2=NC3=NC=CN=C3C(=N2)NC4=CC=NC=C4)F
How it was run: as §1

[3] = compound: C1=CC(=CC=C1C2=NC3=C(N2)C=C(C=C3)C(=O)N)OC4=CC=C(C=C4)Cl
How it was run: as §1

[4] = compound: C1=CC2=C(C=CC(=C2)/C=C\3/C(=O)NC(=NCC4=CC=CS4)S3)N=C1
How it was run: as §1

[5] = compound: C1=CC2=NC=CN=C2C=C1/C=C/3\C(=O)NC(=O)S3
How it was run: as §1

[6] = compound: C1=CC=C(C=C1)C2=NC(=C(N2)C3=CC=NC=C3)C4=CC(=C(C=C4)Cl)O
How it was run: as §1

[7] = compound: C1=CC=C2C(=C1)C3=NNC4=CC=CC(=C43)C2=O
How it was run: as §1

[8] = compound: C1CCN(C1)C(=O)NC2=CC=CC(=C2)NC3=NC=C(C(=N3)NCCC4=CN=CN4)Br
How it was run: as §1

[9] = compound: C1CN(CCC1(CC2=CC=C(C=C2)Cl)N)C3=NC=NC4=C3C=CN4
How it was run: as §1

IRAK-1-4 Inhibitor I = compound: C1COCCN1CCN2C3=CC=CC=C3N=C2NC(=O)C4=CC(=CC=C4)[N+](=O)[O-] [IRAK-1-4 Inhibitor I]
How it was run: as §1

ibrutinib = compound: C=CC(=O)N1CCC[C@@H](n2nc(-c3ccc(Oc4ccccc4)cc3)c3c(N)ncnc32)C1 [ibrutinib]
How it was run: as §1

[10] = compound: CC(=O)c1cnc2ccc(-c3cc(Cl)c(O)c(Cl)c3)nc2c1N[C@H]1CC[C@H](CN(C)C)CC1
How it was run: as §1

ralimetinib = compound: CC(C)(C)Cn1c(N)nc2ccc(-c3[nH]c(C(C)(C)C)nc3-c3ccc(F)cc3)nc21 [ralimetinib]
How it was run: as §1

[11] = compound: CC(C)(O)CC(=O)NCCn1ccc2ncnc(Nc3ccc(Oc4cccc(C(F)(F)F)c4)c(Cl)c3)c21
How it was run: as §1

[12] = compound: CC(C)C1=C2N=C(C=C(N2N=C1)NCC3=CC=CC=C3)NCCCCCCN
How it was run: as §1

[13] = compound: CC(C)C[C@@H](C=O)NC(=O)[C@H](CC(C)C)NC(=O)[C@H](CC(C)C)NC(=O)OCc1ccccc1
How it was run: as §1

pinometostat = compound: CC(C)N(C[C@H]1O[C@@H](n2cnc3c(N)ncnc32)[C@H](O)[C@@H]1O)[C@H]1C[C@@H](CCc2nc3cc(C(C)(C)C)ccc3[nH]2)C1 [pinometostat]
How it was run: as §1

[14] = compound: CC1=C(C(CC(=O)N1)C2=CC=C(C=C2)C(F)(F)F)C(=O)NC3=C(C=C4C(=C3)C=NN4)F
How it was run: as §1

[15] = compound: CC1=C(C2=C(C=C1)C(=O)C3=CC=CC=C3N2CCCN)C
How it was run: as §1

Measured: log2 fold change

RPS28 (UniProt P62857)
inactive: erlotinib -0.017 | [1] -0.29 | [2] -0.071 | [3] -0.004 | [4] -0.317 | [5] 0.004 | [6] -0.072 | [7] 0.135 | [8] 0.167 | [9] 0.06 | IRAK-1-4 Inhibitor I -0.082 | ibrutinib -0.058 | [10] 0.061 | ralimetinib 0.045 | [11] 0.091 | [12] 0.116 | [13] 0.169 | pinometostat 0.024 | [14] 0.029 | [15] -0.138

RPL3 (UniProt P39023)
inactive: erlotinib -0.538 | [1] -0.364 | [2] -1.15 | [3] 0.063 | [4] -0.197 | [5] -0.033 | [6] -0.117 | [7] 0.019 | [8] 0.056 | [9] -0.426 | IRAK-1-4 Inhibitor I -0.314 | ibrutinib 0.061 | [10] 0.265 | ralimetinib 0.25 | [11] 0.067 | [12] -0.05 | [13] 0.173 | pinometostat 0.548 | [14] 0.095 | [15] -0.969

RPL23A (UniProt P62750)
inactive: erlotinib -0.225 | [1] -0.144 | [2] -0.474 | [3] 0.005 | [4] -0.133 | [5] -0.032 | [6] -0.042 | [7] 0.018 | [8] -0.001 | [9] -0.172 | IRAK-1-4 Inhibitor I -0.14 | ibrutinib 0.061 | [10] 0.175 | ralimetinib 0.191 | [11] 0.006 | [12] -0.01 | [13] 0.05 | pinometostat 0.303 | [14] 0.031 | [15] -0.683

RNF5 (UniProt Q99942)
inactive: erlotinib 0.107 | [1] -0.001 | [2] -0.016 | [3] 0.039 | [4] 0.066 | [5] 0.058 | [6] 0.108 | [7] -0.034 | [8] -0.016 | [9] -0.007 | IRAK-1-4 Inhibitor I 0.054 | ibrutinib -0.018 | [10] 0 | ralimetinib 0.27 | [11] -0.032 | [12] -0.221 | [13] -0.078 | pinometostat -0.05 | [14] 0.012 | [15] 0.034

RNF34 isoform 2 (UniProt Q969K3)
inactive: erlotinib 0 | [1] -0.106 | [2] -0.033 | [3] -0.012 | [4] -0.029 | [5] 0.039 | [6] -0.017 | [7] 0.073 | [8] -0.102 | [9] 0 | IRAK-1-4 Inhibitor I 0.027 | ibrutinib -0.052 | [10] -0.22 | ralimetinib -0.122 | [11] -0.202 | [12] -0.037 | [13] 0.254 | pinometostat -0.014 | [14] -0.072 | [15] -0.008

RPL15 (UniProt P61313)
inactive: erlotinib -0.577 | [1] -0.487 | [2] -1.23 | [3] 0.078 | [4] -0.266 | [5] -0.006 | [6] -0.014 | [7] 0.003 | [8] 0.054 | [9] -0.343 | IRAK-1-4 Inhibitor I -0.244 | ibrutinib 0.118 | [10] 0.253 | ralimetinib 0.321 | [11] 0.093 | [12] 0.028 | [13] 0.217 | pinometostat 0.603 | [14] 0.116 | [15] -1.16

RPL39P5 (UniProt Q59GN2)
inactive: erlotinib -0.181 | [1] -0.125 | [2] -0.496 | [3] -0.017 | [4] -0.183 | [5] -0.013 | [6] 0.021 | [7] 0.032 | [8] 0.101 | [9] -0.06 | IRAK-1-4 Inhibitor I -0.222 | ibrutinib 0.109 | [10] 0.194 | ralimetinib 0.221 | [11] 0.108 | [12] 0.075 | [13] 0.225 | pinometostat 0.206 | [14] 0.096 | [15] -0.567

RPN1 (UniProt P04843)
inactive: erlotinib 0 | [1] 0.014 | [2] 0.049 | [3] -0.033 | [4] 0.012 | [5] 0.013 | [6] -0.004 | [7] -0.007 | [8] 0.025 | [9] -0.002 | IRAK-1-4 Inhibitor I 0.045 | ibrutinib -0.019 | [10] -0.023 | ralimetinib -0.048 | [11] -0.065 | [12] -0.086 | [13] -0.01 | pinometostat -0.005 | [14] -0.001 | [15] 0.054

RPL23 (UniProt P62829)
inactive: erlotinib -0.156 | [1] -0.16 | [2] -0.408 | [3] 0.043 | [4] -0.096 | [5] -0.033 | [6] -0.036 | [7] 0.039 | [8] 0.088 | [9] -0.179 | IRAK-1-4 Inhibitor I -0.12 | ibrutinib 0.041 | [10] 0.15 | ralimetinib 0.166 | [11] 0 | [12] -0.015 | [13] 0.087 | pinometostat 0.318 | [14] 0.038 | [15] -0.243

RPL32 (UniProt P62910)
inactive: erlotinib -0.445 | [1] -0.235 | [2] -0.687 | [3] 0.091 | [4] -0.188 | [5] -0.067 | [6] 0.104 | [7] 0.049 | [8] -0.016 | [9] -0.338 | IRAK-1-4 Inhibitor I -0.294 | ibrutinib 0.105 | [10] 0.219 | ralimetinib 0.201 | [11] 0 | [12] -0.011 | [13] 0.165 | pinometostat 0.41 | [14] 0.129 | [15] -0.728

RPL12 (UniProt P30050)
inactive: erlotinib -0.264 | [1] -0.386 | [2] -0.998 | [3] 0.013 | [4] -0.219 | [5] -0.022 | [6] -0.125 | [7] -0.02 | [8] 0.066 | [9] -0.207 | IRAK-1-4 Inhibitor I -0.208 | ibrutinib 0.049 | [10] 0.183 | ralimetinib 0.238 | [11] 0.065 | [12] 0.07 | [13] 0.059 | pinometostat 0.617 | [14] 0.092 | [15] -0.619

RPL11 (UniProt P62913)
inactive: erlotinib -0.287 | [1] -0.348 | [2] -0.919 | [3] 0.01 | [4] -0.232 | [5] -0.045 | [6] -0.056 | [7] -0.031 | [8] 0.063 | [9] -0.344 | IRAK-1-4 Inhibitor I -0.234 | ibrutinib 0.047 | [10] 0.137 | ralimetinib 0.196 | [11] 0 | [12] -0.045 | [13] 0.233 | pinometostat 0.507 | [14] 0.099 | [15] -0.364

RPS19BP1 (UniProt Q86WX3)
inactive: erlotinib -0.001 | [1] -0.122 | [2] -0.213 | [3] 0.157 | [4] 0.004 | [5] 0.024 | [6] -0.133 | [7] -0.006 | [8] 0.09 | [9] -0.076 | IRAK-1-4 Inhibitor I -0.095 | ibrutinib 0.006 | [10] 0.093 | ralimetinib 0.02 | [11] 0.219 | [12] -0.17 | [13] 0.172 | pinometostat 0.118 | [14] -0.083 | [15] -0.333

Fetched one by one from above, two records:
RPL3 (UniProt P39023)
inactive: erlotinib -0.538 | [1] -0.364 | [2] -1.15 | [3] 0.063 | [4] -0.197 | [5] -0.033 | [6] -0.117 | [7] 0.019 | [8] 0.056 | [9] -0.426 | IRAK-1-4 Inhibitor I -0.314 | ibrutinib 0.061 | [10] 0.265 | ralimetinib 0.25 | [11] 0.067 | [12] -0.05 | [13] 0.173 | pinometostat 0.548 | [14] 0.095 | [15] -0.969

RPL39P5 (UniProt Q59GN2)
inactive: erlotinib -0.181 | [1] -0.125 | [2] -0.496 | [3] -0.017 | [4] -0.183 | [5] -0.013 | [6] 0.021 | [7] 0.032 | [8] 0.101 | [9] -0.06 | IRAK-1-4 Inhibitor I -0.222 | ibrutinib 0.109 | [10] 0.194 | ralimetinib 0.221 | [11] 0.108 | [12] 0.075 | [13] 0.225 | pinometostat 0.206 | [14] 0.096 | [15] -0.567

(list continues)

RPP21 isoform 4 (UniProt Q9H633)
inactive: erlotinib -0.063 | [1] 0.12 | [2] 0.035 | [3] -0.078 | [4] -0.054 | [5] -0.039 | [6] 0.09 | [7] 0.047 | [8] -0.02 | [9] -0.011 | IRAK-1-4 Inhibitor I 0.027 | ibrutinib -0.017 | [10] 0.002 | ralimetinib 0.015 | [11] -0.074 | [12] -0.024 | [13] 0.075 | pinometostat 0.207 | [14] 0.03 | [15] -0.163

RPL29 (UniProt P47914)
inactive: erlotinib -0.409 | [1] -0.308 | [2] -1.25 | [3] 0.08 | [4] -0.251 | [5] -0.061 | [6] 0.056 | [7] 0.025 | [8] -0.008 | [9] -0.205 | IRAK-1-4 Inhibitor I -0.208 | ibrutinib 0.118 | [10] 0.223 | ralimetinib 0.386 | [11] 0.393 | [12] 0.106 | [13] 0.216 | pinometostat 0.398 | [14] 0.061 | [15] -0.763

RPS24 isoform 4 (UniProt P62847)
inactive: erlotinib -0.152 | [1] -0.138 | [2] -0.33 | [3] 0.043 | [4] -0.095 | [5] -0.021 | [6] -0.116 | [7] -0.018 | [8] 0.052 | [9] -0.138 | IRAK-1-4 Inhibitor I -0.1 | ibrutinib 0.053 | [10] 0.095 | ralimetinib 0.128 | [11] 0.057 | [12] -0.011 | [13] 0.094 | pinometostat 0.255 | [14] 0.074 | [15] -0.538
